Experimental data: PubChem BioAssay AID1508600 (Functional Genomics Laboratory (NCATS/FGL), 2020)
The whole screen tested about 53,000 sequences, of which about 3,700 (7%) were called active.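 The calls were made as follows: active = gene knockdowns whose robust z-score for IL-1 alpha signal is at least 2 or at most -2, so actives lie on both sides; inactive = the rest.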 Some of the results follow.

assay: Components of the Cytosolic LPS Sensing Pathway: Gene Identification via Genome-wide siRNA Screen; conditions: RAW264.7 macrophages, IL-1a HTRF, actives lie on both sides, screened at 100 nM (by protocol), cells primed 5 h with Pam3CSK4 first;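 also: robust z of the log signal after scaling to non-targeting control siRNA wells of the plate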
How it was run: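 Knockdown: 100 nM siRNA, 48h, RAW264.7. Stimulation: Pam3CSK4 5 h, then LipidA via TransIT-TKO 24 h. Output: supernatant IL-1a HTRF, negative-control-normalized, log robust z-score; viability by CellTiter-Glo.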

Row | Sequence | z-score
1 | GGAAGUGGACACAGAAAAATT against Baiap2l2 | inactive: -0.0309
2 | GGUGUGCAUCACCUUUGACTT against Lgals1 | inactive: -0.715
3 | GCUGAUAAAUCUGAACUACTT against Dhrs7 | inactive: 1.15
4 | GCGAAUUACAUGAAAACAUTT against Rassf9 | inactive: 0.527
5 | GGUAUCAAGGUGAAGUUGATT against Septin1 | inactive: 0.776
6 | GCACAUCGGCCUUAAGUCATT against Supt4a | inactive: -0.833
7 | GGUGUACAGAUCUGUCUGGTT against Dkk1 | active: 2.33
8 | CCAAGAACUACCGUGAGUATT against Uts2r | inactive: -0.511
9 | GCCUACCCGAGGAAACUUUTT against Spatc1 | inactive: -0.302
10 | GGAAGUUUUGUUCCUGCAUTT against Nars2 | inactive: -0.0244
11 | GCCUAAGCCUACCAAACGATT against Ints3 | inactive: 0.0965
12 | GGUGGACUUUAGUCCUGUGTT against Bpifb6 | inactive: -1.02
13 | GCUUCAAAAGUCUCCAUUGTT against Slc38a8 | inactive: -1.86
14 | GGCCGUUGGAAACACGAUCTT against Exosc6 | inactive: -0.0911
15 | CCUUGAAAUUUGUUCAUACTT against Pgm2l1 | inactive: -0.886
16 | GGGAUUAGCACUUUUUCUUTT against 2700081O15Rik | inactive: -0.646
17 | GGUAAACUGAGGCAACGACTT against Ddah2 | inactive: -0.234
18 | GCCUGAAAGGCCUCACAAATT against Eloa | inactive: -0.72
19 | GCUAAAAAUGGUUGUGUGATT against Six3os1 | inactive: -1.62
20 | GGACUUUACUACGUAGAUGTT against Psmb8 | inactive: -1.85
21 | GGGCAGUCAAAACGAAGAGTT against Obi1 | inactive: -1.18
22 | GGCCUUAGAGAAAAUCUUUTT against Brd3 | inactive: 0.871

Row | Sequence | z-score
23 | GGAAUGAGGAACCUUCUUCTT against Oprm1 | inactive: 0.0699
24 | GGAUACAGAGCAGGAGAAATT against Rhox2a | inactive: -0.822
25 | CCAGCAAGAGUGUGUGUAATT against Fam222a | inactive: -1.24
26 | GGUUGGAUCAAGUUUAAAUTT against Tmsb4x | inactive: -0.0202
27 | GCCUUUCUCGCUACUUAGUTT against Cltc | active: 2.83
28 | GGAGCAUUAUCAACCACUATT against Olfr908 | inactive: -0.0594
29 | GCGAGAAACAUCAAUGGAUTT against Psip1 | inactive: -0.145
30 | GGUGGACCUUUGAAAAAGCTT against Tor1aip2 | inactive: -1.54
31 | GCCCUUUCCUCAAAAAAAATT against 1700034E13Rik | inactive: -0.42
32 | GGAAGAUGAACUUCGUACCTT against Slc4a2 | inactive: -0.438
33 | CCACGAAAGGUGGAGAGGUTT against Tmc2 | inactive: 1.17
34 | GGCUAGUUUUCUCUUAAAUTT against Usp1 | active: -3.12
35 | GCCGGAAUACUGGAUACCGTT against Vasn | inactive: 0.247
36 | GCGUGAGAAGAGCAUUGAGTT against Rab11fip3 | inactive: -0.115
37 | GGAAUUUUACCUUUUGGAUTT against Tm9sf3 | inactive: 0.408
38 | GGAAUAGGAGCAAGUGUACTT against 9930021J03Rik | inactive: 1.03
39 | GCGAAAAAGAUCGUCCUUGTT against Polr3a | inactive: -0.444
40 | GCGGUUGAUGCAUAUAAUUTT against Dnaaf4 | inactive: 0.504
41 | GCCACAUUUUACAAUUUAGTT against Laptm4b | inactive: 0.488
42 | GGAACGGAACAUAAACCAGTT against Evpl | inactive: 1.97
43 | GGCUGUGACUUUUGAUCUATT against Prelid3b | inactive: 0.46
44 | GCCUACGUUACCUUGAUCCTT against Slc16a12 | inactive: 0.0774

Row | Sequence | z-score
45 | CCUCUUAACAUCUCAAUACTT against Dio2 | inactive: -0.831
46 | GGCCUUUUUGUUUAUGCUATT against Zan | inactive: -0.0784
47 | GGGAUGGAAACCCUGGAUCTT against Col3a1 | inactive: 0.438
48 | CCCAGAGGACAUUUAAGCUTT against Glb1 | inactive: -1.03
49 | GAGUUAAAGGUAAAAAUGGTT against Klra3 | inactive: -0.749
50 | GGAGGAGGGAAUCAGAGAATT against Zfp738 | inactive: -0.0251
51 | CCAUUGAGUCUUUCAUUACTT against Ube2g1 | inactive: 1.84
52 | GCAUUGUGGAGGAUGUACATT against C230029F24Rik | inactive: -0.933
53 | CGAACCUGACUUUCACAGCTT against Il10rb | inactive: 1.02
54 | CCAUUGAACAGCAGAUUGGTT against Atp7a | inactive: 0.81
55 | GCCUUUUUUGGAAAAUACCTT against Sulf1 | inactive: 0.3
56 | GCAUGUGUUACAUAGAAAUTT against Ss18l2 | inactive: -0.274
57 | GGCAAUCUAUGAGAAAUUCTT against Rgs18 | inactive: 0.463
58 | GCAUAUACCACCAAUGAGATT against Gid4 | inactive: 0.0625
59 | GGUGGUAGCUCCAGUAUCUTT against Sdcbp2 | inactive: -1.91
60 | CGAGAAAAUGGAGCUCUAATT against Csf3 | inactive: 0.462
61 | GCUCUCACCUCCCUAUUGATT against Sult2b1 | inactive: 0.421
62 | GGGACUCGAGUUUCAUCUATT against Casc1 | inactive: 0.768
63 | GGAAAAUGGGAAGACAGAGTT against Dus3l | inactive: 0.686
64 | GGAUGGAAAGAAAAUCCUGTT against Pign | inactive: -1.15
65 | GGGCCAAGAUUAUAAGUAATT against Pld3 | inactive: 1.39
66 | GGCGGUGAUCCAGGGUUUATT against Klc2 | active: 2.62

Copied from above: nos. 50–53
Row | Sequence | z-score
50 | GGAGGAGGGAAUCAGAGAATT against Zfp738 | inactive: -0.0251
51 | CCAUUGAGUCUUUCAUUACTT against Ube2g1 | inactive: 1.84
52 | GCAUUGUGGAGGAUGUACATT against C230029F24Rik | inactive: -0.933
53 | CGAACCUGACUUUCACAGCTT against Il10rb | inactive: 1.02

The results go on.

Row | Sequence | z-score
67 | GGACAGACUGAAUGAGCAGTT against Faf2 | active: 2.24
68 | GGCCAUACACCUGUGACAUTT against Osr2 | inactive: 1.37
69 | CCUCUACAUUCCAGCCAUGTT against Yif1b | inactive: 0.162
70 | GGUGAUCAACUUCCUGAAATT against Hdac11 | inactive: -0.713
71 | CCUUCUUGUGGGAGUGAAATT against Chodl | inactive: -0.0597
72 | GGAGAAACAAAACUUCUGGTT against Armc1 | inactive: -0.566
73 | CGCAUCAACAAAUUUACAATT against Kcnh7 | inactive: 0.446
74 | CCUAUGUCCACCACAAAUGTT against Ifi209 | inactive: -0.14
75 | GGGAUAGCUCUUAUUAUUUTT against Man2b2 | inactive: 1.57
76 | GGGCCUGGAUUACUUACACTT against Srpk1 | active: 4.83
77 | GCUGUACUUCUAGCUCGGATT against Il17rc | inactive: -0.0801
78 | GCUGUUUGCCUGGAAUUGGTT against Uqcr10 | inactive: -0.396
79 | GCCCAACUACCAUAGCCUATT against Lamtor1 | inactive: 0.273
80 | GGACCUAAGUGUGAAAUACTT against Txndc11 | inactive: 0.542
81 | GCAGCACUGGCUAUUGAGATT against Man1a2 | inactive: 0.385
82 | CCGAAUCCUAUAUUUGACATT against Ptprj | inactive: -0.42
83 | GGAAAAAGCUGAGGUACCATT against Crebl2 | inactive: -1.23
84 | GGAGGAAAUCAGUGCAGAATT against Luc7l | inactive: 0.843
85 | GGGUAAACUGUGGAGAAAUTT against Fam214b | inactive: -0.833
86 | GGCCCUAUUUGGCUACGUUTT against Dgat2 | inactive: -0.332
87 | GGAUCUCUUCGACUAUAUCTT against Pim2 | inactive: -0.22
88 | CCCAGCUCACACAAACUCATT against Zfp560 | inactive: -1.24

Row | Sequence | z-score
89 | GGAGAUGGCUUAAAUAAAUTT against Cox6a1 | inactive: -0.278
90 | GCAUUCUCAAGUGAGGCGUTT against Atp5k | inactive: -1.75
91 | GCUGUACAUUCCGAUUAUCTT against Olfr1134 | inactive: 0.631
92 | GCGCGUACAUCUUGUCUCATT against Tspan11 | inactive: 0.279
93 | GGCCAUUACUCAAAUGUAUTT against Ppp2r2d | inactive: -0.415
94 | GCCGCACGUUUUUGAGUUGTT against Islr2 | inactive: -0.554
95 | GGCAAAAACUAUGAACUACTT against Ctsd | inactive: 0.714
96 | CCUCACAAGAGGCCUGUGUTT against Fstl1 | inactive: -1.54
97 | GGAGUGGUCAGCCAAACUUTT against Entpd3 | inactive: -0.466
98 | GGCUAUGCUUGAGGGAGUGTT against Oog4 | inactive: -0.265
99 | GGCCACACAGAAUAGCUCUTT against Taf6l | inactive: 0.0293
100 | GCCAGUUUCCGCAUCUACCTT against Hoxa7 | inactive: 1.37
101 | GGAAAGCGGUAUGGCAUGGTT against LTO1 | inactive: -0.238
102 | GCAGAUACCAUGAUACAGUTT against Med20 | inactive: -0.154
103 | GGACUGAAUCAAGUAGAGUTT against Dkk2 | inactive: 1.42
104 | GGUAAACCAAACAAAACCATT against Rpl35a | inactive: 0.264
105 | CCCAUGACCAAUGGGUGAATT against Plch1 | inactive: -0.232
106 | GGCAAAAAUGAGAAAGAGATT against Hebp2 | inactive: -0.643
